{"source": "paper PMC10613967", "about": "“The anti-cancer efficacy of a novel phenothiazine derivative is independent of dopamine and serotonin receptor inhibition” (Frontiers in Oncology, 2023)", "key": {"RPMI7951": {"test_system": "RPMI7951", "assay": "Cell viability assay (Cell-Titer-Blue)", "format": "cell-based", "conditions": "Homo sapiens, RPMI-7951; 72h; read-out: Calculated IC50"}, "U87": {"test_system": "U87", "assay": "Cell viability assay (Cell-Titer-Blue)", "format": "cell-based", "conditions": "Homo sapiens, U-87 MG; 72h; read-out: Calculated IC50"}, "LNCaP": {"test_system": "LNCaP", "assay": "Cell viability assay (Cell-Titer-Blue)", "format": "cell-based", "conditions": "Homo sapiens, 72h, read-out: Calculated IC50"}, "22Rv1": {"test_system": "22Rv1", "assay": "Cell viability assay (Cell-Titer-Blue)", "format": "cell-based", "conditions": "Homo sapiens, 72h, read-out: Calculated IC50"}, "A498": {"test_system": "A498", "assay": "Cell viability assay (Cell-Titer-Blue)", "format": "cell-based", "conditions": "Homo sapiens, 72h, read-out: Calculated IC50"}, "HCT116": {"test_system": "HCT116", "assay": "Cell viability assay (Cell-Titer-Blue)", "format": "cell-based", "conditions": "Homo sapiens, HCT-116; 72h; read-out: Calculated IC50"}, "A375 cells": {"test_system": "A375 cells", "assay": "Cell viability assay (Cell-Titer-Blue)", "format": "cell-based, human"}, "TCCSUP": {"test_system": "TCCSUP", "assay": "Cell viability assay (Cell-Titer-Blue)", "format": "cell-based", "conditions": "Homo sapiens, TCC-SUP; 72h; read-out: Calculated IC50"}, "U251": {"test_system": "U251", "assay": "Cell viability assay (Cell-Titer-Blue)", "format": "cell-based", "conditions": "Homo sapiens, U-251; 72h; read-out: Calculated IC50"}, "[1]": {"test_system": "R545 tet-inducible RasV12 melanoma cells", "assay": "cells", "conditions": "Mus musculus, 72 h"}, "PC-3": {"test_system": "PC-3", "assay": "Cell viability assay (Cell-Titer-Blue)", "format": "cell-based", "conditions": "Homo sapiens, 72h, read-out: Calculated IC50"}, "HepG2": {"test_system": "HepG2", "assay": "Cell viability assay (Cell-Titer-Blue)", "format": "cell-based", "conditions": "Homo sapiens, 72h, read-out: Calculated IC50"}, "A2058": {"test_system": "A2058", "assay": "Cell viability assay (Cell-Titer-Blue)", "format": "cell-based", "conditions": "Homo sapiens, 72h, read-out: Calculated IC50"}, "DU145": {"test_system": "DU145", "assay": "Cell viability assay (Cell-Titer-Blue)", "format": "cell-based", "conditions": "Homo sapiens, DU-145; 72h; read-out: Calculated IC50"}, "A101D": {"test_system": "A101D", "assay": "Cell viability assay (Cell-Titer-Blue)", "format": "cell-based", "conditions": "Homo sapiens, 72h, read-out: Calculated IC50"}, "HT29": {"test_system": "HT29", "assay": "Cell viability assay (Cell-Titer-Blue)", "format": "cell-based", "conditions": "Homo sapiens, HT-29; 72h; read-out: Calculated IC50"}, "MDA-MB-231": {"test_system": "MDA-MB-231", "assay": "Cell viability assay (Cell-Titer-Blue)", "format": "cell-based", "conditions": "Homo sapiens, 72h, read-out: Calculated IC50"}, "SKMEL28": {"test_system": "SKMEL28", "assay": "Cell viability assay (Cell-Titer-Blue)", "format": "cell-based", "conditions": "Homo sapiens, SK-MEL-28; 72h; read-out: Calculated IC50"}, "RT4": {"test_system": "RT4", "assay": "Cell viability assay (Cell-Titer-Blue)", "format": "cell-based", "conditions": "Homo sapiens, RT-4; 72h; read-out: Calculated IC50"}, "MCF10A cells": {"test_system": "MCF10A cells", "assay": "cells", "conditions": "Homo sapiens, MCF-10A, 72 h, read-out: Calculated IC50"}, "HCC1806": {"test_system": "HCC1806", "assay": "Cell viability assay (Cell-Titer-Blue)", "format": "cell-based", "conditions": "Homo sapiens, 72h, read-out: Calculated IC50"}, "ZR-75-1": {"test_system": "ZR-75-1", "assay": "Cell viability assay (Cell-Titer-Blue)", "format": "cell-based", "conditions": "Homo sapiens, 72h, read-out: Calculated IC50"}, "BxPC3": {"test_system": "BxPC3", "assay": "Cell viability assay (Cell-Titer-Blue)", "format": "cell-based", "conditions": "Homo sapiens, BXPC-3; 72h; read-out: Calculated IC50"}, "Hs852T": {"test_system": "Hs852T", "assay": "Cell viability assay (Cell-Titer-Blue)", "format": "cell-based", "conditions": "Homo sapiens; 72h; read-out: Calculated IC50"}, "PANC1": {"test_system": "PANC1", "assay": "Cell viability assay (Cell-Titer-Blue)", "format": "cell-based", "conditions": "Homo sapiens, PANC-1; 72h; read-out: Calculated IC50"}, "786-O": {"test_system": "786-O", "assay": "Cell viability assay (Cell-Titer-Blue)", "format": "cell-based", "conditions": "Homo sapiens, 786-0; 72h; read-out: Calculated IC50"}}, "note": "Where a name gives a salt, the structure may show the parent alone. Read-outs that look alike come from different tables or passages of the source."}
{"smiles": "OCCN1CCN(CCCN2c3ccccc3Sc3ccc(C(F)(F)F)cc32)CC1", "note": "[Fluphenazine, fluphenazine hydrochloride]", "values": [{"measurement": "IC50", "setting": "RPMI7951", "value": 10.7, "unit": "µM"}, {"measurement": "IC50", "setting": "U87", "value": 23.3, "unit": "µM"}, {"measurement": "IC50", "setting": "LNCaP", "value": 13.7, "unit": "µM"}, {"measurement": "IC50", "setting": "22Rv1", "value": 11.3, "unit": "µM"}, {"measurement": "IC50", "setting": "A498", "value": 7.5, "unit": "µM"}, {"measurement": "IC50", "setting": "HCT116", "value": 10.6, "unit": "µM"}, {"measurement": "IC50", "setting": "A375 cells; 72h, read-out: Calculated IC50", "value": 9.4, "unit": "µM"}, {"measurement": "IC50", "setting": "A375 cells; Homo sapiens, A-375, 24 h, 24h treatment, read-out: IC50, cell viability", "value": 20.1, "unit": "µM"}, {"measurement": "IC50", "setting": "A375 cells; Homo sapiens, A-375, 72 h, 72h, read-out: Calculated IC50", "value": 9.35, "unit": "µM"}, {"measurement": "IC50", "setting": "TCCSUP", "value": 11.5, "unit": "µM"}, {"measurement": "IC50", "setting": "U251", "value": 16.8, "unit": "µM"}, {"measurement": "IC50", "setting": "[1]; read-out: Calculated IC50, 72h, Dox (–)", "value": 13.2, "unit": "µM"}, {"measurement": "IC50", "setting": "[1]; read-out: Calculated IC50, 72h, Dox(+)", "value": 12.7, "unit": "µM"}, {"measurement": "IC50", "setting": "PC-3", "value": 22.8, "unit": "µM"}, {"measurement": "IC50", "setting": "HepG2", "value": 9.8, "unit": "µM"}, {"measurement": "IC50", "setting": "A2058", "value": 7.9, "unit": "µM"}, {"measurement": "IC50", "setting": "DU145", "value": 21, "unit": "µM"}, {"measurement": "IC50", "setting": "A101D", "value": 7.7, "unit": "µM"}, {"measurement": "IC50", "setting": "HT29", "value": 11.1, "unit": "µM"}, {"measurement": "IC50", "setting": "MDA-MB-231", "value": 16.9, "unit": "µM"}, {"measurement": "IC50", "setting": "SKMEL28", "value": 8.7, "unit": "µM"}, {"measurement": "IC50", "setting": "RT4", "value": 22.1, "unit": "µM"}, {"measurement": "IC50", "setting": "MCF10A cells", "value": 11.3, "unit": "µM"}, {"measurement": "IC50", "setting": "HCC1806", "value": 11.4, "unit": "µM"}, {"measurement": "IC50", "setting": "ZR-75-1", "value": 13.4, "unit": "µM"}, {"measurement": "IC50", "setting": "BxPC3", "value": 10.4, "unit": "µM"}, {"measurement": "IC50", "setting": "Hs852T", "value": 11.7, "unit": "µM"}, {"measurement": "IC50", "setting": "PANC1", "value": 23.1, "unit": "µM"}, {"measurement": "IC50", "setting": "786-O", "value": 12, "unit": "µM"}]}
